These are yes or no findings as the source states them, for the method shown. Binding seen in cells or lysates may run through a third protein. Some results given as binding are weak or reduced against the parent protein; the word gives no strength. Sequences can lack the tags named with a protein.
Biological target: T1, GFP-tagged mLgl2 (UniProt Q3TJ91)
T1 sequence: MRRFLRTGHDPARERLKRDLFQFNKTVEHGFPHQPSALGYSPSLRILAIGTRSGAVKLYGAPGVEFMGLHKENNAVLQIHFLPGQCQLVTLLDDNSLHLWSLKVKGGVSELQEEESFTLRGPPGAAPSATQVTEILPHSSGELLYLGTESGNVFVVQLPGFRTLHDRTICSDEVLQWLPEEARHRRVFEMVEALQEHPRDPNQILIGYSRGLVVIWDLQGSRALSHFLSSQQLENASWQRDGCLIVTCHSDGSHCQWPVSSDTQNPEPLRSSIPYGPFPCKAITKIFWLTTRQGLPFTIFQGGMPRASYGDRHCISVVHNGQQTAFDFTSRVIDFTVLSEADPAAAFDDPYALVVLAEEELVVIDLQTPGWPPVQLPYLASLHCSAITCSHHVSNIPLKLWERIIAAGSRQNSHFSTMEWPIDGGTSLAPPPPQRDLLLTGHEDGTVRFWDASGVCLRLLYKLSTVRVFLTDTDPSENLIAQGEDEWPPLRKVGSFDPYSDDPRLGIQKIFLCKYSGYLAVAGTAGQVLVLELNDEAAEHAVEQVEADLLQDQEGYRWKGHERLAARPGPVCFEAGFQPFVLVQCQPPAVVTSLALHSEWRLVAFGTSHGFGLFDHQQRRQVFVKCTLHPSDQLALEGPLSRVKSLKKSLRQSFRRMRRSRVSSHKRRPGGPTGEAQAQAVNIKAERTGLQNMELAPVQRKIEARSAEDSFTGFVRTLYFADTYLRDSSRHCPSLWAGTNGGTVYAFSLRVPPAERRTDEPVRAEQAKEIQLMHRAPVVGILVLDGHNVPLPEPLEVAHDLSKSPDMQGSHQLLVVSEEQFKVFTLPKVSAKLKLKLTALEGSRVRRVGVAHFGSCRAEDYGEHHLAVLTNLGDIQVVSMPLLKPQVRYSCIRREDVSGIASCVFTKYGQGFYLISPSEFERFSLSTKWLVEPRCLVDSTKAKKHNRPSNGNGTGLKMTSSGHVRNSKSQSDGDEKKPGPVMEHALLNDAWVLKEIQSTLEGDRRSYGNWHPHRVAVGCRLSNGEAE
Assay: co-IP; lysates of GFP-mLgl2-expressing MCF-7 cells, immunoprecipitation with anti-GFP antibody, Western blotting with anti-VprBP antibody

Sequences of proteins named here, by UniProt entry; tags and fusion partners are left off.
UniProt Q9Y4B6: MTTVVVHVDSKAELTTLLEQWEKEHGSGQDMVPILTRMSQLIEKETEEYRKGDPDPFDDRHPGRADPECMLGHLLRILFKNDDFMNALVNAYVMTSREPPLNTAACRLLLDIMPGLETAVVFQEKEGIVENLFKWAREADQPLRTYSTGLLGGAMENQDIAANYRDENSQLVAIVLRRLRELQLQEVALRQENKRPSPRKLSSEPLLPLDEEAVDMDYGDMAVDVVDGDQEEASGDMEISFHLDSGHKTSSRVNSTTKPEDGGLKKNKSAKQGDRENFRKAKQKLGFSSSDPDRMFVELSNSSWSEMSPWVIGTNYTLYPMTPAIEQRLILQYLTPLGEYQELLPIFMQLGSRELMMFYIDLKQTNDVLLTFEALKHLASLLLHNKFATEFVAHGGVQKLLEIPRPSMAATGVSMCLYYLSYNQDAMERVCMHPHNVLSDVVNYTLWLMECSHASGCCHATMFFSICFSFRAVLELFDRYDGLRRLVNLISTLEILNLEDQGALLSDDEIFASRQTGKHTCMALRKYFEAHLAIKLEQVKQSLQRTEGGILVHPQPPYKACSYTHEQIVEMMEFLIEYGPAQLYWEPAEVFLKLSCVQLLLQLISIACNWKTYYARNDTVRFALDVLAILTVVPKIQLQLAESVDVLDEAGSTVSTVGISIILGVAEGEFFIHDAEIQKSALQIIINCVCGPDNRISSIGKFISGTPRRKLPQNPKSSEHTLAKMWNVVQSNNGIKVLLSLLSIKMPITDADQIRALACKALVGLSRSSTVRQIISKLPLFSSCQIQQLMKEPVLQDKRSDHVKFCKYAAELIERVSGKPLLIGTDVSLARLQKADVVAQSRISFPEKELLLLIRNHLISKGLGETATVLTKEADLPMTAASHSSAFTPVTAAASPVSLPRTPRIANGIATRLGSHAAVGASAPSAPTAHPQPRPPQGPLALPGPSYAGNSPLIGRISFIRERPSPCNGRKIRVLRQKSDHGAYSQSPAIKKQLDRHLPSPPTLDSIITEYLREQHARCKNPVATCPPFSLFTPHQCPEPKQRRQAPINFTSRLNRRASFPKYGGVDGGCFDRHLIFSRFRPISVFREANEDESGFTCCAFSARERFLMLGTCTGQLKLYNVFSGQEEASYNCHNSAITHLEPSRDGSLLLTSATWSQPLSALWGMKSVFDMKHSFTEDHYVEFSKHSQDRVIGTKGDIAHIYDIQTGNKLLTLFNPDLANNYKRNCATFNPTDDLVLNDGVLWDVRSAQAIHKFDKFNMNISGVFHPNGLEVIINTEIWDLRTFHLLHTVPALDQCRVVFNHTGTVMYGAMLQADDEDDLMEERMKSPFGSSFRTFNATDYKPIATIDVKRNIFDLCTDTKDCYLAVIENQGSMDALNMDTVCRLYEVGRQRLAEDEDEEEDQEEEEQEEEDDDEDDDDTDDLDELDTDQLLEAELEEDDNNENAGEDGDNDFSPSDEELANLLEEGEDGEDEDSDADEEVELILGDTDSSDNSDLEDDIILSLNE

## VprBP (viral protein R-binding protein), endogenous in MCF-7 cells (from UniProt Q9Y4B6 1-1507)
  binding: binds

From paper PMC2903597
